Laboratory results from patent US10383333B2, “Carbamate compound and use thereof” (SUMITOMO CHEMICAL COMPANY, LIMITED, priority 2015, dated 2019).
Some entries share one result that the patent states for a list of compounds.

Tests used:
Format in all cases: in vivo
[1] = test system: barley net blotch fungus (Pyrenophora teres); test: Test Example 1: barley net blotch, foliar spray before inoculation; details: 500 ppm foliar spray on barley (Mikamo-Golden), inoculated 2 days after spraying, formulated per Formulation Example 6
[2] = test system: Cercospora leaf spot (Cercospora sojina); test: Test Example 7: soybean Cercospora leaf spot, foliar spray after inoculation; details: 200 ppm foliar spray on soybean (Tachinagaha) five days after inoculation, assessed after 14 days, formulated per Formulation Example 6
[3] = test system: wheat speckled leaf blotch fungus (Septoria tritici); test: Test Example 5: wheat speckled leaf blotch, foliar spray before inoculation; details: 500 ppm foliar spray on wheat (Apogee), inoculated 4 days after spraying, formulated per Formulation Example 6

## COC(=O)Nc1cccc(C)c1COc1cc(C)c(-c2ccc(F)cn2)cc1C [Present Compound 11]
[1]
  area of the lesion relative to untreated barley: ≤ 30%
[2]
  area of the lesion relative to untreated soybean: ≤ 30%

## COC(=O)Nc1ccccc1COc1ccc(-c2ccc(F)c(C)n2)cc1C [Present Compound 1]
[1]
  area of the lesion relative to untreated barley: ≤ 30%
[3]
  area of the lesion relative to untreated wheat: ≤ 30%
[2]
  area of the lesion relative to untreated soybean: ≤ 30%
